The values that follow come from patent US20230312680A1.

These are yes or no findings as the source states them, for the method shown. Binding can be weak; no strength is given. Ends that are not written are not given here.

This assay deals with HLA-B*44:02 (human). Put plainly: UV-ligand exchange, b2m ELISA; grade of exchange yield. Background: An ELISA detects its analyte on a solid surface through an enzyme-linked reagent.

B1: … (SEQ ID No 406) (peptide)
peptide: EDGRLVIEF
In the case of B1, the binding entry is “binds”.

B2: … (SEQ ID No 416) (peptide)
peptide: SEEETRVVF
For the molecule B2, the binding result is “binds”.

B3: … (SEQ ID No 417) (peptide)
peptide: AEHFSMIRA
B3: the binding entry was “binds”.

B4: … (SEQ ID No 419) (peptide)
peptide: HEFGHVLGL
For the molecule B4, the binding result was “binds”.

B5: … (SEQ ID No 398) (peptide)
peptide: SFEQVVNELF
Consider B5, for which the binding entry is “binds”.

B6: … (SEQ ID No 203) (peptide)
peptide: IEHSTQAQDTL
For the molecule B6, the binding entry was “binds”.

B7: TEVSRTEL (SEQ ID No 209) (peptide)
peptide: TEVSRTEL
Take B7: the binding result is “binds”.

B8: … (SEQ ID No 412) (peptide)
peptide: QEILTQVKQ
For B8, the binding entry is on record as “binds”.

B9: … (SEQ ID No 424) (peptide)
peptide: TEFPLFSAA
As for B9, the binding entry is “binds”.

B10: … (SEQ ID No 199) (peptide)
peptide: REIDESLIFY
With B10, the binding entry is on record as “binds”.

B11: … (SEQ ID No 208) (peptide)
peptide: TEVSRTEAI
On to B11, for which the binding entry is reported as “binds”.

B12: … (SEQ ID No 397) (peptide)
peptide: REGDTVQLL
As to B12, the binding entry was “binds”.

B13: … (SEQ ID No 418) (peptide)
peptide: FEDAQGHIW
With B13, the binding entry is recorded as “binds”.

B14: … (SEQ ID No 414) (peptide)
peptide: EDAALFKAW
As for B14, the binding entry is reported as “binds”.

B15: … (SEQ ID No 206) (peptide)
peptide: SESVTSRTSY
Consider B15, for which the binding result is on record as “binds”.

B16: … (SEQ ID No 399) (peptide)
peptide: RELLHLVTL
B16: the binding entry is “binds”.

B17: … (SEQ ID No 211) (peptide)
peptide: EEKVFPSPLW
On to B17, for which the binding entry is “binds”.

B18: … (SEQ ID No 201) (peptide)
peptide: AETILTFHAF
For the molecule B18, the binding entry was “binds”.

B19: … (SEQ ID No 423) (peptide)
peptide: SEVPTGTTA
B19: the binding result is on record as “binds”.

B20: … (SEQ ID No 196) (peptide)
peptide: REMPGGPVW
For B20, the binding result is “binds”.

B21: … (SEQ ID No 421) (peptide)
peptide: GEPATTVSL
Consider B21, for which the binding entry is reported as “binds”.

B22: SEITRIEM (SEQ ID No 205) (peptide)
peptide: SEITRIEM
For B22, the binding entry was “binds”.

B23: … (SEQ ID No 204) (peptide)
peptide: RETSTSEETSL
On to B23, for which the binding result is “binds”.

B24: LEAQQEAL (SEQ ID No 193) (peptide)
peptide: LEAQQEAL
Turning to B24, the binding entry is “binds”.

B25: … (SEQ ID No 413) (peptide)
peptide: IEALSGKIEL
In the case of B25, the binding entry is on record as “binds”.

B26: … (SEQ ID No 396) (peptide)
peptide: REASGLLSL
Turning to B26, the binding entry was “binds”.

B27: … (SEQ ID No 411) (peptide)
peptide: LELPPILVY
Consider B27, for which the binding result is “binds”.

B28: … (SEQ ID No 402) (peptide)
peptide: RELANDELIL
With B28, the binding result was “binds”.

B29: … (SEQ ID No 214) (peptide)
peptide: VEQTRAGSLL
Turning to B29, the binding result is reported as “binds”.

B30: … (SEQ ID No 415) (peptide)
peptide: REEDAALFKAW
As for B30, the binding entry was “binds”.

B31: … (SEQ ID No 195) (peptide)
peptide: AEDKRHYSV
Regarding B31, the binding result is recorded as “binds”.

B32: … (SEQ ID No 403) (peptide)
peptide: EEAQWVRKY
In the case of B32, the binding entry is on record as “binds”.

B33: NEAIMHQY (SEQ ID No 404) (peptide)
peptide: NEAIMHQY
For B33, the binding result is “binds”.

B34: LEKALQVF (SEQ ID No 408) (peptide)
peptide: LEKALQVF
With B34, the binding result was “binds”.

B35: … (SEQ ID No 422) (peptide)
peptide: SETTFSLIF
For B35, the binding result is “binds”.

B36: … (SEQ ID No 194) (peptide)
peptide: KEVDPTSHSY
Regarding B36, the binding entry was “binds”.

B37: … (SEQ ID No 202) (peptide)
peptide: HESEATASW
Consider B37, for which the binding entry is listed as “binds”.

B38: … (SEQ ID No 409) (peptide)
peptide: REFVLSKGDAGL
B38: the binding result is “binds”.

B39: … (SEQ ID No 197) (peptide)
peptide: AEVLLPRLV
On to B39, for which the binding entry is on record as “binds”.

B40: … (SEQ ID No 207) (peptide)
peptide: TEARATSDSW
As to B40, the binding entry was “binds”.

B41: … (SEQ ID No 212) (peptide)
peptide: MEQKQLQKRF
For the molecule B41, the binding entry is “binds”.

B42: … (SEQ ID No 213) (peptide)
peptide: KESIPRWYY
Turning to B42, the binding entry is “binds”.

B43: … (SEQ ID No 407) (peptide)
peptide: AEHEGVSVL
Consider B43, for which the binding entry is reported as “binds”.

B44: NEIWTHSY (SEQ ID No 405) (peptide)
peptide: NEIWTHSY
Take B44: the binding result was “binds”.

B45: … (SEQ ID No 210) (peptide)
peptide: VEAADIFQNF
B45: the binding result is on record as “binds”.

B46: QEAARAAL (SEQ ID No 198) (peptide)
peptide: QEAARAAL
For the molecule B46, the binding entry is “binds”.

B47: GEIEIHLL (SEQ ID No 400) (peptide)
peptide: GEIEIHLL
B47: the binding entry was “binds”.

B48: … (SEQ ID No 410) (peptide)
peptide: SEDPSKLEA
As for B48, the binding entry is recorded as “binds”.

B49: … (SEQ ID No 420) (peptide)
peptide: FESHSTVSA
On to B49, for which the binding entry is listed as “binds”.

B50: … (SEQ ID No 200) (peptide)
peptide: AESIPTVSF
Consider B50, for which the binding entry is “binds”.
